Several values for one entry are separate records, joined by “and”; a condition that tells them apart may be missing. Equal values may be shown once. Among all 78,000 compounds or so, about 1,800 (2.3%) were called active. The inconclusive results got no clear call from the source; some entries with a clear call stand among them for comparison. No stated cut-off is given here; in the data, active means inhibition above about 30%; inconclusive means mostly about 10% to 28%; inactive means weaker than that.
Biological target: Interleukin-1 receptor-like 1 (Homo sapiens) (UniProt Q01638)
Experiment: blocks human ST2 binding to IL-33, primary screen, biochemical, AlphaLISA (AID 1259354)
Conditions: AlphaLISA ST2-Fc/biotin-IL-33 interaction, 1 h; at 17 µM, stronger effect = higher value

The chains behind the UniProt entries cited, without tags or fusion partners. Where a name states a change or a piece, a line headed by the entry shows the natural chain unless it says otherwise.
UniProt Q01638: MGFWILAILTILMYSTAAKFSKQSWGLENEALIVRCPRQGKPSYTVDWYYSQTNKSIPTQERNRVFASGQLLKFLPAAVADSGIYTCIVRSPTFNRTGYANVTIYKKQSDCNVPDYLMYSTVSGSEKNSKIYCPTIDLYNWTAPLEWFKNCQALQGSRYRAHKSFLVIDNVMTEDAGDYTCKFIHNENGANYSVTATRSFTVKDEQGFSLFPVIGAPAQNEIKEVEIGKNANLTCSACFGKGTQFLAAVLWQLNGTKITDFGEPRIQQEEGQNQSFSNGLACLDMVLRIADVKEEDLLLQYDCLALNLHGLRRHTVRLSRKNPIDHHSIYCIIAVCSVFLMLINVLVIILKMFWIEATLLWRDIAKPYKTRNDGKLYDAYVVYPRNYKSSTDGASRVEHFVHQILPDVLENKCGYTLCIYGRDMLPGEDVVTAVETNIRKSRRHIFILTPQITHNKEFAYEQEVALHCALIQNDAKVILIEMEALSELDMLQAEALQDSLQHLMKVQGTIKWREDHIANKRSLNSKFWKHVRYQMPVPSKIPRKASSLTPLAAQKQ

Row | Structure (SMILES) | inhibition
1 | CC(=O)C1=C(C)NC(SCC(=O)Nc2nc3ccccc3s2)=C(C#N)C1c1cccnc1 (configuration not stated) | inconclusive: 11%
2 | Cn1nc(-c2ccccc2)cc1C(=O)NCc1csc(-c2ncccn2)n1 | inconclusive: 14%
3 | O=C(CSc1nc2c(c(=O)n1-c1ccc(Br)cc1)SCC2)c1ccccc1 | inconclusive: 18%
4 | COc1ccc(Cl)cc1NC(=O)CCC1CCCN(C(=O)CCN2CCCO2)C1 (configuration not stated) | inconclusive: 22%
5 | Cc1nc(SCCNC(=O)c2nc[nH]c2C)n[nH]1 | inactive
6 | Cc1nc(CNC(C)COc2ccccc2)cs1 (configuration not stated) | inactive
7 | Cc1nc2c(C(=O)N3CCCCC3)c[nH]n2c(=O)c1Cc1ccc(Cl)cc1 | inconclusive: 10%
8 | O=C1C2C3C=CC(C3)C2C(=O)N1c1ccc(Cl)cc1Cl (configuration not stated) | inconclusive: 12%
9 | COc1ccc(COc2ccc3c4c(c(=O)oc3c2)CCC4)cc1 | inactive
10 | COCCNC(=O)[C@@H](C)[C@@H]1CC[C@@]2(C)CC[C@H](NC(=O)c3cnccn3)[C@@H](C)[C@@H]2[C@H]1O | inconclusive: 16%
11 | CCC(C)NC(=O)c1cc2c(=O)n3cccc(C)c3nc2n1C (configuration not stated) | inactive
12 | Cc1cc(CC(C)NC(=O)Cn2nccc2C)n[nH]1 (configuration not stated) | inconclusive: 20%
13 | CN(C(=O)CCC(=O)Nc1nncs1)C1CCCCCC1 | inactive
14 | COc1cccc(OCCOc2ccc(/C=C3/C(=O)N(c4ccccc4)N=C3C)cc2OC)c1 | active: 43%
15 | Cc1ccc(-n2nc3c(c2NC(=O)c2cc4ccccc4oc2=O)CS(=O)C3)cc1 (configuration not stated) | inconclusive: 17%
16 | COc1ccc(Cl)cc1N=CC1=C(O)CC(C)(C)CC1=O | inconclusive: 13%
17 | O=S(=O)(Nc1c(F)c(F)c(F)c(F)c1F)c1ccccc1 | inactive
18 | COc1ccc(C2C(C(=O)Nc3ccccc3)=C(C)Nc3ncnn32)cc1 (configuration not stated) | inactive
19 | COc1ccc(OC)c(/C=C2\C(=O)Nc3ccc(Br)cc32)c1 | active: 35%
20 | COCCN(Cc1cccs1)C(=O)c1c(C)nc2ncccn12 | inconclusive: 20%
21 | CC(C)CSc1oc(-c2ccco2)nc1S(=O)(=O)c1ccc(Br)cc1 | inconclusive: 11%
22 | COc1ccc(-c2nn(-c3ccccc3C)cc2CN(C)Cc2ccon2)cc1F | inactive
23 | O=C(Cn1c(=O)oc2ccccc21)Nc1ccc(C(=O)NCc2ccccc2)cc1 | inconclusive: 15%

Shown in CSV form: entries from further up
Row,Structure (SMILES),inhibition
6,Cc1nc(CNC(C)COc2ccccc2)cs1 (configuration not stated),inactive
7,Cc1nc2c(C(=O)N3CCCCC3)c[nH]n2c(=O)c1Cc1ccc(Cl)cc1,inconclusive: 10%

(continued)

Row | Structure (SMILES) | inhibition
24 | COC(=O)C1(C)CCN(c2nc(-c3cccnc3)nc3c2cnn3C)CC1 | inconclusive: 14%
25 | C=CCn1c(SCC(=O)Nc2ccc3c(c2)OCO3)nc2sc3c(c2c1=O)CCC3 | inconclusive: 16%
26 | Cc1cccc(-n2ncc3c(NCCc4ccccc4)ncnc32)c1 | inconclusive: 13%
27 | O=C(Cn1ncc2ccccc21)N1CCC(Cn2cc(CO)nn2)CC1 | inconclusive: 13%
28 | COc1ccc(C2C(C(C)=O)=C(O)C(=O)N2c2cccc(C(=O)O)c2)cc1OC (configuration not stated) | inactive
29 | CSc1ccccc1C(=O)N1CCCC(CNC(=O)c2ccccc2Cl)C1 (configuration not stated) | inconclusive: 18%
30 | CCOC(=O)N1CCN(C(=O)CN(c2cccc(Cl)c2C)S(C)(=O)=O)CC1 | inactive
31 | O=C(O)c1nnc(Nc2ccccc2)c2ccccc12 | inconclusive: 11%
32 | CCC(C)OC(=O)C1=C(C)NC2=C(C(=O)C(C(=O)OC)C(C)C2)C1c1ccc(C)cc1 (configuration not stated) | inactive
33 | Cc1ccc(NC(=O)c2ccc(Br)cc2)cc1OCc1cc(=O)n2cccc(C)c2n1 | inconclusive: 10%
34 | Cc1ccc(C2Nc3ccccc3NC3=C2C(=O)CC(c2ccccc2F)C3)cc1 (configuration not stated) | inconclusive: 11%
35 | Cc1nc2c(c(N3CCCC3)n1)CCN(C(=O)c1snnc1C)C2 | inactive
36 | C=C1CC2OC(=O)C(=C)C2C(OC(=O)/C(C)=C\C)CC2(C)OC1=CC2=O (configuration not stated) | inconclusive: 21%
37 | Fc1cccc(NC2CCCN(Cc3cnc(N4CCCC4)s3)C2)c1 (configuration not stated) | inconclusive: 18%
38 | CC(C)Cc1cc(C(=O)N[C@@H]2c3ccccc3C[C@@H]2O)n(C)n1 | inactive
39 | Cc1sc2nc(SCC(N)=O)[nH]c(=O)c2c1C | inactive
40 | CC12C=CC(C)(O1)C1C(=O)N(c3ccc4c(c3)OCO4)C(=O)C12 (configuration not stated) | inconclusive: 14%
41 | CSc1ccc(OC(=O)c2ccc(Br)cc2)cc1 | inactive
42 | O=C(CSc1c2c(nc3cc(Cl)ccc13)CCCC2)N1CCN(c2ccccn2)CC1 | inconclusive: 25%
43 | Cc1cc(C(F)(F)F)nc(CCn2cc(-c3ccnc4ccccc34)nn2)n1 | inconclusive: 13%
44 | C=CCn1cc(C(=O)NCCC(C)C)c(=O)c2cc(S(=O)(=O)N3CCCCCC3)ccc21 | inactive
45 | Cc1cc(C)c(C#N)c(SCC(=O)Nc2cccc3cccnc23)n1 | inactive
46 | O=C(CCc1nc(-c2ccccc2F)no1)Nc1ccccc1F | inconclusive: 16%

Row | Structure (SMILES) | inhibition
47 | O=C(O)c1cc2c3c(c1)C1C=CCC1C(c1cccc([N+](=O)[O-])c1)N3CC1CC=CC21 (configuration not stated) | active: 40%
48 | CC1=C(C(=O)Nc2ccccc2)C(c2ccc([N+](=O)[O-])cc2)n2ncnc2N1 (configuration not stated) | inconclusive: 16%
49 | CN(Cc1ccccc1)C(=O)[C@@H]1Cc2nc[nH]c2CN1C(=O)CC(C)(C)CC(=O)O | inconclusive: 24%
50 | C/C=C(\C)CN1CCN(c2ccc(C)cc2)CC1 | inconclusive: 12%
51 | CCOC(=O)CC1CCCCN1C(=O)c1cc(COc2ccc(OC)cc2Cl)on1 (configuration not stated) | inconclusive: 10%
52 | COC(=O)c1cc(-c2ccc(OC)c3ncccc23)c[nH]1 | inconclusive: 10%
53 | COc1ccc(Nc2nc3ccc(F)cc3s2)cc1 | inactive
54 | Cc1cccc(NC(=O)N2CCC(n3c(C)nc4cccnc43)CC2)c1 | inconclusive: 10%
55 | Cc1cc(C)n(CCCC(=O)N2CCC3(CC2)NCCNC3=O)n1 | inconclusive: 15%
56 | C=Cc1cccc(CN2CCN(C)C3(CCN(C)CC3)C2)c1 | inconclusive: 15%
57 | Cc1ccc2c(c1)c(CNC(=O)c1coc(COc3ccccc3)n1)nn2C | inconclusive: 14%
58 | CC(C)CN1C(=O)N(C)C(=O)C12CCN(Cc1ccc(OC(F)(F)F)cc1)CC2 | inconclusive: 22%
59 | Fc1ccc(-c2ncnn2-c2ccc(Cl)cc2)cc1 | inconclusive: 13%
60 | O=C(NCCCN1CCN(Cc2ccccc2)CC1)c1cc(-c2ccncc2)nc2ccccc12 | inconclusive: 18%
61 | Cc1cccc(NC(=O)CSc2cn(CCNC(=O)c3ccccc3F)c3ccccc23)c1 | inactive
62 | Oc1c(Br)cc(C=Nc2ccc(N3CCOCC3)cc2)c(O)c1Br | active: 52%
63 | CN1CCC(N2CCOC(CCNS(=O)(=O)C3CC3)C2)CC1 (configuration not stated) | inconclusive: 16%
64 | O=C(NCc1nc2ccccc2n1Cc1ccccc1F)c1ccc(F)cc1 | inactive
65 | CN(C)CCNC(=O)C[C@@H]1CCNC[C@@H]1Cc1cc(-c2ccccc2)on1 | inconclusive: 16%
66 | COc1cc(/C=C/c2nc(-c3ccccc3O)n(-c3ccccc3)n2)ccc1O | inconclusive: 28%
67 | c1ccc(CNc2nc(NC3CCCCC3)nc(N3CCOCC3)n2)cc1 | inactive
68 | Cc1nc2sccn2c1C(=O)N(C)C(C)c1ccon1 (configuration not stated) | inconclusive: 12%
69 | N#CCC(=O)c1ccc([N+](=O)[O-])cc1 | inconclusive: 15%

Another view of part of the listing above:
Row,Structure (SMILES),inhibition
27,O=C(Cn1ncc2ccccc21)N1CCC(Cn2cc(CO)nn2)CC1,inconclusive: 13%
48,CC1=C(C(=O)Nc2ccccc2)C(c2ccc([N+](=O)[O-])cc2)n2ncnc2N1 (configuration not stated),inconclusive: 16%
58,CC(C)CN1C(=O)N(C)C(=O)C12CCN(Cc1ccc(OC(F)(F)F)cc1)CC2,inconclusive: 22%
66,COc1cc(/C=C/c2nc(-c3ccccc3O)n(-c3ccccc3)n2)ccc1O,inconclusive: 28%

Additional records.

Row | Structure (SMILES) | inhibition
70 | CCOC(=O)CSc1nc(C)c(C(C)=O)cc1C#N | inconclusive: 12%
71 | CC1(C)CC(=O)C2=C(C1)Nc1nc(SCc3ccccc3Cl)nn1C2c1cccnc1 (configuration not stated) | active: 31% and inconclusive: 17%
72 | COc1ccc2cc3cc(C(=O)NCc4ccc(F)cc4)oc3nc2c1 | inconclusive: 15%
73 | CC(C)C(NC(=O)c1ccco1)C(=O)O (configuration not stated) | active: 32%
74 | COc1ccc(C2SCCN2S(=O)(=O)c2ccc(C)c([N+](=O)[O-])c2)cc1OC (configuration not stated) | inconclusive: 14%
75 | CC(C)c1nccn1CCCNC(=O)c1ccc(-c2ccc(N)nc2)nc1 | inconclusive: 10%
76 | CCOCCCNCc1cc(OC)ccc1OC | inactive
77 | Cc1cccc(C(=O)O/N=C(/N)c2cccnc2)c1 | inconclusive: 10%
78 | NCC1CCN(Cc2ccnc3ccccc23)C1 (configuration not stated) | inconclusive: 11%
79 | CCc1ccc(-c2nc(CN3CCCC(C(=O)NCCN4CCCC4)C3)c(C)o2)cc1 (configuration not stated) | inconclusive: 14%
80 | Cn1c(=O)cc(SCC(=O)Nc2ccc(F)cc2F)c2ccccc21 | inactive
81 | CC1(C(=O)N2CCC(n3cc(C(C)(C)C)nn3)CC2)CCCO1 (configuration not stated) | inconclusive: 18%
82 | CC(=O)Nc1ccc(Cl)c(C(N)=O)c1 | inconclusive: 14%
83 | Cc1nccn1CCCN1CCOc2c(O)cc(-c3cccc(Cl)c3)cc2C1 | inactive
84 | C=CCN1CCC(CNC(=O)CC23CC4CC(CC(C4)C2)C3)C1 (configuration not stated) | inconclusive: 11%
85 | CN1C(=O)N(Cc2cccnc2)C(=O)C12CCN(Cc1cn(C)c3ccccc13)CC2 | inconclusive: 14%
86 | COc1ccc(N(C)S(=O)(=O)c2cccc3cccnc23)c(OC)c1 | inconclusive: 10%
87 | CCOC(=O)c1sc(Nc2nc3ccc(OC)cc3s2)nc1C | inconclusive: 14%
88 | Cc1ccc(S(=O)(=O)NC(=NCC(=O)O)c2ccccc2)cc1 | inconclusive: 11%
89 | C/C=C1\C(OC2OC(CO)C(O)C(O)C2O)OC=C(C(=O)OC)C1CC(=O)OCC(CO)C1CC(OC(=O)CC2C(C(=O)OC)=COC(OC3OC(CO)C(O)C(O)C3O)/C2=C\C)C(C)C1COC(=O)CC1C(C(=O)OC)=COC(OC2OC(CO)C(O)C(O)C2O)/C1=C\C (configuration not stated) | inconclusive: 11%
90 | CCOc1cc([N+](=O)[O-])cc(C=Nc2ccc(N3CCOCC3)cc2)c1O | inconclusive: 27%
91 | COc1ccc(Cn2c(CNC(=O)Cc3cccs3)nc3cccnc32)cc1 | inconclusive: 14%
92 | COc1ccc(-c2csc3ncnc(N4CCN(c5ccccc5OC)CC4)c23)cc1 | inactive

Source: PubChem BioAssay AID1259354 (Paczesny and Yang Labs, IUPUI and University of Michigan, 2018)
